No constants are given. Whether binding was seen depends on the method and setting. Binding seen in cells or lysates may run through a third protein. For some assays here: A result given as binding can be weak or reduced; the word gives no strength. For some assays here: Sequences can lack the tags named with a protein. Values belong to the molecule of their own block, whether it stands above or below them.
What was measured:
Arf1^Q71L-RlucII (human) = Arf1^Q71L-RlucII (human) (UniProt P84077); assay: FRET or BRET; BRET^2 in live HEK293T cells (γ/µ1 also in Arf1-KO cells; some panels with Brefeldin A 10 µM 15 min or co-expressed Arf1-HA forms): low constant amount of the RlucII donor, increasing amounts of the GFP10 acceptor; coelenterazine 400a 5 µM; BRET50 and BRETmax from a one-site saturation fit
[1] = biological target: γ^L68D,L71D-GFP10 (human) (UniProt O43747); assay: co-IP; HEK293T cells transfected, lysed in TNE buffer (150 mM NaCl, 10 mM Tris-HCl pH 7.5, 5 mM EDTA, 0.5% Triton X-100); GFP10 fusion precipitated with anti-GFP antibody and protein-G sepharose overnight at 4 °C; partner detected by Western blot (anti-γ or anti-RLuc)

Sequences of proteins named here, by UniProt entry; tags and fusion partners are left off. A change or cut given only in a name is not applied to a line headed by its entry.
UniProt P84077: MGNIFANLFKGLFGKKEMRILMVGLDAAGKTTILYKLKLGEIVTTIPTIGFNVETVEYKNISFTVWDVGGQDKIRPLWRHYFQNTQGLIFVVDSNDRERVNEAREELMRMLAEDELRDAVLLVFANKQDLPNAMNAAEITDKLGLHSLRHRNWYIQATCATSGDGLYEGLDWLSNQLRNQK
UniProt O43747: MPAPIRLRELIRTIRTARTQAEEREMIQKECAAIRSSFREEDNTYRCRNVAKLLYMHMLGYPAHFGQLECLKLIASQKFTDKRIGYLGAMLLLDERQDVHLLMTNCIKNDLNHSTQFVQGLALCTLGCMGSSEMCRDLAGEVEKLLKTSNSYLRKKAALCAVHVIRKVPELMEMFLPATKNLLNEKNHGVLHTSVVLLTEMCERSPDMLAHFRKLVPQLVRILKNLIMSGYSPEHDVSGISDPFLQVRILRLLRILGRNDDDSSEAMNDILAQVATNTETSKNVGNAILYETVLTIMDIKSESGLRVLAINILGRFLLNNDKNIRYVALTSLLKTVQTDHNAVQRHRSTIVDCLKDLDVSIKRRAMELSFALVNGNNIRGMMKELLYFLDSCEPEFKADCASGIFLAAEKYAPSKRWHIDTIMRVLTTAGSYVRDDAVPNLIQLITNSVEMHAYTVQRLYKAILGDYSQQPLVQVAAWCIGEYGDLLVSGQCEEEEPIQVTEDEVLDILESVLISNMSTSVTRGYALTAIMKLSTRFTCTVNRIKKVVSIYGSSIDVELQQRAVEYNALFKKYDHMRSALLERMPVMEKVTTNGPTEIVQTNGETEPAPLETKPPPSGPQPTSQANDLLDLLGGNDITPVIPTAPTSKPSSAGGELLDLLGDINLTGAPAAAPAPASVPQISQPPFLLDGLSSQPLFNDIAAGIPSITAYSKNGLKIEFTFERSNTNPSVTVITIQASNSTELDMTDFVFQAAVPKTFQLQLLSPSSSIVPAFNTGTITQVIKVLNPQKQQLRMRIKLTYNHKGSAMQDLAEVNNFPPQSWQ

binding (Arf1^Q71L-RlucII (human)): no binding
Molecule: γ^L68D,L71D-GFP10 (from UniProt O43747)

binding [1]: binds
B1: β1-GFP10 (AP-1 β1 subunit, wild type) (natural protein, human, UniProt Q10567 1-949, looked up)
chain: MTDSKYFTTTKKGEIFELKAELNSDKKEKKKEAVKKVIASMTVGKDVSALFPDVVNCMQTDNLELKKLVYLYLMNYAKSQPDMAIMAVNTFVKDCEDPNPLIRALAVRTMGCIRVDKITEYLCEPLRKCLKDEDPYVRKTAAVCVAKLHDINAQLVEDQGFLDTLKDLISDSNPMVVANAVAALSEIAESHPSSNLLDLNPQSINKLLTALNECTEWGQIFILDCLANYMPKDDREAQSICERVTPRLSHANSAVVLSAVKVLMKFMEMLSKDLDYYGTLLKKLAPPLVTLLSAEPELQYVALRNINLIVQKRPEILKHEMKVFFVKYNDPIYVKLEKLDIMIRLASQANIAQVLAELKEYATEVDVDFVRKAVRAIGRCAIKVEQSAERCVSTLLDLIQTKVNYVVQEAIVVIKDIFRKYPNKYESVIATLCENLDSLDEPEARAAMIWIVGEYAERIDNADELLESFLEGFHDESTQVQLQLLTAIVKLFLKKPTETQELVQQVLSLATQDSDNPDLRDRGYIYWRLLSTDPVAAKEVVLAEKPLISEETDLIEPTLLDELICYIGTLASVYHKPPSAFVEGGRGVVHKSLPPRTASSESAESPETAPTGAPPGEQPDVIPAQGDLLGDLLNLDLGPPVSGPPLATSSVQMGAVDLLGGGLDSLMGDEPEGIGGTNFVAPPTAAVPANLGAPIGSGLSDLFDLTSGVGTLSGSYVAPKAVWLPAMKAKGLEISGTFTRQVGSISMDLQLTNKALQVMTDFAIQFNRNSFGLAPAAPLQVHAPLSPNQTVEISLPLSTVGSVMKMEPLNNLQVAVKNNIDVFYFSTLYPLHILFVEDGKMDRQMFLATWKDIPNENEAQFQIRDCPLNAEAASSKLQSSNIFTVAKRNVEGQDMLYQSLKLTNGIWVLAELRIQPGNPSCTDLELSLKCRAPEVSQHVYQAYETILKN
notes: β1 subunit of the adaptor protein complex 1 (AP-1), human; amplified by PCR minus the stop codon; also called β-GFP10; full-length β1-GFP10; source: HEK293T, transfected, in live cells (BRET), cell fractions and lysate (co-IP); not shown: GFP10, C-terminal, kept

Source: PMC5540999, “In vivo monitoring of the recruitment and activation of AP-1 by Arf1” (Scientific Reports, 2017)
